The values below come from publication PMC5702460.

By UniProt entry, the sequences of proteins in these tests, tags left out. Residues count along the entry.
UniProt P27824, residues 21-592: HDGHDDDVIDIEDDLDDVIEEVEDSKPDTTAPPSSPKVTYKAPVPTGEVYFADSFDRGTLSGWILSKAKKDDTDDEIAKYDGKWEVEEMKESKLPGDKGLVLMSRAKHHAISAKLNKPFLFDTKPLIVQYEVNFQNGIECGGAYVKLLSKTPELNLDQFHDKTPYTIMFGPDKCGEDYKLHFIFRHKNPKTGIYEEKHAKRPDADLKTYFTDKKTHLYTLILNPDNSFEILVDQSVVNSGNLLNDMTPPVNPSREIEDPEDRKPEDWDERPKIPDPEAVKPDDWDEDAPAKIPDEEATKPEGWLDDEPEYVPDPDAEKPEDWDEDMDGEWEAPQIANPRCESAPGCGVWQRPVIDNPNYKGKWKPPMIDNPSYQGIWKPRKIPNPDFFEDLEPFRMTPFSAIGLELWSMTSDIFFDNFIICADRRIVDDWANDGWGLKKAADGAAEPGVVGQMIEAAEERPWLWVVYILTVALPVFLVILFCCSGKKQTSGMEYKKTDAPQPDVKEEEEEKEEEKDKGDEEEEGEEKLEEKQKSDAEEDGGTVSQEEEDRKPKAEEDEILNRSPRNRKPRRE
UniProt P06733: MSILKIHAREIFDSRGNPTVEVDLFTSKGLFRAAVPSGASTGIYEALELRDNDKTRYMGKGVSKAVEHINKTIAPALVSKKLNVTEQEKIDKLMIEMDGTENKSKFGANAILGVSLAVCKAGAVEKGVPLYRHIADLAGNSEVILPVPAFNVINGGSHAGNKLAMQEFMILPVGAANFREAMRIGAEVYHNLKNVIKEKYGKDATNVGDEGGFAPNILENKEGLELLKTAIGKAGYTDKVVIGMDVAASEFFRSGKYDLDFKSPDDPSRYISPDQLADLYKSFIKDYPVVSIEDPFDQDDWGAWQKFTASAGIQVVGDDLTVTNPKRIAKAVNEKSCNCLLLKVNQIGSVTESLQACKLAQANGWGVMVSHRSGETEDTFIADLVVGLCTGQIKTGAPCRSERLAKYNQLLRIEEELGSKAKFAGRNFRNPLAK
UniProt P07355: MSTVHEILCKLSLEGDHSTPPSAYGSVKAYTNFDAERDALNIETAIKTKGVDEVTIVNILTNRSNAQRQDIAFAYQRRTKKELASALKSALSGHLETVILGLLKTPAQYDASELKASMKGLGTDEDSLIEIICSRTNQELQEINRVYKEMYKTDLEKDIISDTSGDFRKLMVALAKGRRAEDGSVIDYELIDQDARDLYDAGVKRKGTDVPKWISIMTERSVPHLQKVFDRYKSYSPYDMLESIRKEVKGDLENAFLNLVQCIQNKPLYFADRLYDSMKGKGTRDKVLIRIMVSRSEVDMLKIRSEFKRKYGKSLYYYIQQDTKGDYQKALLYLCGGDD

First the molecules themselves.
B1: Protein disulfide-isomerase A4 (protein, UniProt P13667 21-645)
chain: VAGAEGPDEDSSNRENAIEDEEEEEEEDDDEEEDDLEVKEENGVLVLNDANFDNFVADKDTVLLEFYAPWCGHCKQFAPEYEKIANILKDKDPPIPVAKIDATSASVLASRFDVSGYPTIKILKKGQAVDYEGSRTQEEIVAKVREVSQPDWTPPPEVTLVLTKENFDEVVNDADIILVEFYAPWCGHCKKLAPEYEKAAKELSKRSPPIPLAKVDATAETDLAKRFDVSGYPTLKIFRKGRPYDYNGPREKYGIVDYMIEQSGPPSKEILTLKQVQEFLKDGDDVIIIGVFKGESDPAYQQYQDAANNLREDYKFHHTFSTEIAKFLKVSQGQLVVMQPEKFQSKYEPRSHMMDVQGSTQDSAIKDFVLKYALPLVGHRKVSNDAKRYTRRPLVVVYYSVDFSFDYRAATQFWRSKVLEVAKDFPEYTFAIADEEDYAGEVKDLGLSESGEDVNAAILDESGKKFAMEPEEFDSDTLREFVTAFKKGKLKPVIKSQPVPKNNKGPVKVVVGKTFDSIVMDPKKDVLIEFYAPWCGHCKQLEPVYNSLAKKYKGQKGLVIAKMDATANDVPSDRYKVEGFPTIYFAPSGDKKNPVKFEGGDRDLEHLSKFIEEHATKLSRTKEEL
B2: Transaldolase (protein, UniProt P37837 1-337)
chain: MSSSPVKRQRMESALDQLKQFTTVVADTGDFHAIDEYKPQDATTNPSLILAAAQMPAYQELVEEAIAYGRKLGGSQEDQIKNAIDKLFVLFGAEILKKIPGRVSTEVDARLSFDKDAMVARARRLIELYKEAGISKDRILIKLSSTWEGIQAGKELEEQHGIHCNMTLLFSFAQAVACAEAGVTLISPFVGRILDWHVANTDKKSYEPLEDPGVKSVTKIYNYYKKFSYKTIVMGASFRNTGEIKALAGCDFLTISPKLLGELLQDNAKLVPVLSAKAAQASDLEKIHLDEKSFRWLHNEDQMAVEKLSDGIRKFAADAVKLERMLTERMFNAENGK
B3: Malate dehydrogenase, cytoplasmic (protein, UniProt P40925 1-334)
chain: MSEPIRVLVTGAAGQIAYSLLYSIGNGSVFGKDQPIILVLLDITPMMGVLDGVLMELQDCALPLLKDVIATDKEDVAFKDLDVAILVGSMPRREGMERKDLLKANVKIFKSQGAALDKYAKKSVKVIVVGNPANTNCLTASKSAPSIPKENFSCLTRLDHNRAKAQIALKLGVTANDVKNVIIWGNHSSTQYPDVNHAKVKLQGKEVGVYEALKDDSWLKGEFVTTVQQRGAAVIKARKLSSAMSAAKAICDHVRDIWFGTPEGEFVSMGVISDGNSYGVPDDLLYSFPVVIKNKTWKFVEGLPINDFSREKMDLTAKELTEEKESAFEFLSSA
B4: Probable serine carboxypeptidase CPVL (protein, UniProt Q9H3G5 23-476)
chain: LFRSLYRSVSMPPKGDSGQPLFLTPYIEAGKIQKGRELSLVGPFPGLNMKSYAGFLTVNKTYNSNLFFWFFPAQIQPEDAPVVLWLQGGPGGSSMFGLFVEHGPYVVTSNMTLRDRDFPWTTTLSMLYIDNPVGTGFSFTDDTHGYAVNEDDVARDLYSALIQFFQIFPEYKNNDFYVTGESYAGKYVPAIAHLIHSLNPVREVKINLNGIAIGDGYSDPESIIGGYAEFLYQIGLLDEKQKKYFQKQCHECIEHIRKQNWFEAFEILDKLLDGDLTSDPSYFQNVTGCSNYYNFLRCTEPEDQLYYVKFLSLPEVRQAIHVGNQTFNDGTIVEKYLREDTVQSVKPWLTEIMNNYKVLIYNGQLDIIVAAALTERSLMGMDWKGSQEYKKAEKKVWKIFKSDSEVAGYIRQAGDFHQVIIRGGGHILPYDQPLRAFDMINRFIYGKGWDPYVG
B5: Fructose-bisphosphate aldolase A (protein, UniProt P04075 1-364)
chain: MPYQYPALTPEQKKELSDIAHRIVAPGKGILAADESTGSIAKRLQSIGTENTEENRRFYRQLLLTADDRVNPCIGGVILFHETLYQKADDGRPFPQVIKSKGGVVGIKVDKGVVPLAGTNGETTTQGLDGLSERCAQYKKDGADFAKWRCVLKIGEHTPSALAIMENANVLARYASICQQNGIVPIVEPEILPDGDHDLKRCQYVTEKVLAAVYKALSDHHIYLEGTLLKPNMVTPGHACTQKFSHEEIAMATVTALRRTVPPAVTGITFLSGGQSEEEASINLNAINKCPLLKPWALTFSYGRALQASALKAWGGKKENLKAAQEEYVKRALANSLACQGKYTPSGQAGAAASESLFVSNHAY
B6: Peroxiredoxin-1 (protein, UniProt Q06830 1-199)
chain: MSSGNAKIGHPAPNFKATAVMPDGQFKDISLSDYKGKYVVFFFYPLDFTFVCPTEIIAFSDRAEEFKKLNCQVIGASVDSHFCHLAWVNTPKKQGGLGPMNIPLVSDPKRTIAQDYGVLKADEGISFRGLFIIDDKGILRQITVNDLPVGRSVDETLRLVQAFQFTDKHGEVCPAGWKPGSDTIKPDVQKSKEYFSKQK
B7: LIM and SH3 domain protein 1 (protein, UniProt Q14847 1-261)
chain: MNPNCARCGKIVYPTEKVNCLDKFWHKACFHCETCKMTLNMKNYKGYEKKPYCNAHYPKQSFTMVADTPENLRLKQQSELQSQVRYKEEFEKNKGKGFSVVADTPELQRIKKTQDQISNIKYHEEFEKSRMGPSGGEGMEPERRDSQDGSSYRRPLEQQQPHHIPTSAPVYQQPQQQPVAQSYGGYKEPAAPVSIQRSAPGGGGKRYRAVYDYSAADEDEVSFQDGDTIVNVQQIDDGWMYGTVERTGDTGMLPANYVEAI
B8: F-box only protein 2 (protein, UniProt Q9UK22 1-296)
chain: MDGDGDPESVGQPEEASPEEQPEEASAEEERPEDQQEEEAAAAAAYLDELPEPLLLRVLAALPAAELVQACRLVCLRWKELVDGAPLWLLKCQQEGLVPEGGVEEERDHWQQFYFLSKRRRNLLRNPCGEEDLEGWCDVEHGGDGWRVEELPGDSGVEFTHDESVKKYFASSFEWCRKAQVIDLQAEGYWEELLDTTQPAIVVKDWYSGRSDAGCLYELTVKLLSEHENVLAEFSSGQVAVPQDSDGGGWMEISHTFTDYGPGVRFVRFEHGGQDSVYWKGWFGARVTNSSVWVEP

No constants are given. Whether binding was seen depends on the method and setting. In cells and extracts the contact can be indirect. These calls come from enrichment with a bait or labelling near it, and not all partners need be listed.

The assay addresses T1, Hazara virus nucleocapsid protein (N) (Hazara virus strain JC280) (UniProt P27318).
T1 sequence: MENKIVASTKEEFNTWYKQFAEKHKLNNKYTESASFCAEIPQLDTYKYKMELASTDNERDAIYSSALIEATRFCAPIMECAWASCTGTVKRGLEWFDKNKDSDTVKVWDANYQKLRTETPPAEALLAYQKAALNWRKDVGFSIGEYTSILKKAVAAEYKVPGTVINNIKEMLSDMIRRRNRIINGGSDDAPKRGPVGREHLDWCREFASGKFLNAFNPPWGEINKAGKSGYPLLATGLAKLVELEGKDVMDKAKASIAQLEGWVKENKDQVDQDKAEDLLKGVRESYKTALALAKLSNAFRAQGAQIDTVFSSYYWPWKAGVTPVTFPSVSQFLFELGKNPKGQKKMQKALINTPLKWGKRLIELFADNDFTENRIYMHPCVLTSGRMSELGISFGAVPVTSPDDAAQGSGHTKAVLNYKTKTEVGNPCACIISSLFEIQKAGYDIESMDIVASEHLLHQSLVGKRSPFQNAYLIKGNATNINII
The assay is described as follows: affinity purification with mass spectrometry.
Consider Calnexin (from UniProt P27824 21-592), for which the binding result was “binds”.

“Ryanodine receptor 3 (from UniProt Q15413 1-4870)”: the binding entry is listed as “binds”.

Turning to “Stress-induced-phosphoprotein 1 (from UniProt P31948 1-543)”, the binding entry was “binds”.

“Alpha-enolase (from UniProt P06733 1-434)”: the binding entry is “binds”.

With Annexin A2 (from UniProt P07355 1-339), the binding result is “binds”.

For B1, the binding result is “binds”.

As for B2, the binding result is recorded as “binds”.

As to B3, the binding result was “binds”.

Regarding B4, the binding result is listed as “binds”.

With B5, the binding entry was “binds”.

Turning to B6, the binding entry is given as “binds”.

For B7, the binding entry was “binds”.

Take B8: the binding result was “binds”.
